A short description of the data set: general procedure: Fmoc solid-phase peptide synthesis; Tentagel-S-RAM; DIC/HOBt/DIPEA. As to conditions: whole synthesis, scale 100 mg resin.

No end group written: not given here.

Substance GHRPLDKKREEAPSLRPAPPPISGGGYR-NH2 showed a crude mass of 75 mg and an isolated mass of 48 mg.
